Assay [1] has as its system SARS-CoV-2 -1 PRF reporter mCherry-FSE-GFP(-1). Nature of the assay: mCherry (red) intensity as percent of control; higher = higher upstream reporter expression. The conditions noted are these: 10 µM; 24 h; HEK293T.
Assay [2] has the same test system. Nature of the assay: percent effect, decrease of GFP/mCherry ratio (-1 PRF reporter) relative to controls; higher = stronger frameshift inhibition. The note with it: 10 µM; 24 h; HEK293T.

Values joined by “and” are separate entries in the source; they are usually repeats but may differ in a detail not shown here. Equal values may be shown once. Some of the results follow. Single values are uncertain here, since repeats match poorly.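 HEK293T cells were given each compound shortly before transfection with a reporter in which red mCherry is followed by the SARS-CoV-2 frameshift element and then GFP in the −1 frame, so GFP appears only after frameshifting.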

`O=C(O)C1CSCN1` (centres undefined) [timonacic]: in assay [1], the mCherry was 114%. Further, in assay [2], the percent effect was -2.71%.

As to `CSc1nc2cc(Cl)c(Oc3cccc(Cl)c3Cl)cc2[nH]1` [triclabendazole], the mCherry in assay [1] came to 84.6%. In addition, the percent effect in assay [2] came to 1.24%.

Molecule `Cc1nc(-c2ccc(OCC(C)C)c(C#N)c2)sc1C(=O)O` [febuxostat] gave a mCherry in assay [1] of 109%. In addition, the percent effect in assay [2] is -0.936%.

For `COc1ccc2[nH]c([S+]([O-])Cc3ncc(C)c(OC)c3C)nc2n1` (centres undefined) [tenatoprazole], the mCherry in assay [1] was 88.8% and 72.8%. For the same molecule, in assay [2], the percent effect was -0.0316% and -0.993%.

The molecule `CC12CCC(CC1)C(C)(C)O2` gave a mCherry in assay [1] of 92.6%. Besides, in assay [2], the percent effect was -0.669%.

Consider `CC(C)NC(=N)NC(=N)Nc1ccc(Cl)cc1` [proguanil], for which the mCherry in assay [1] was 64.3%. The percent effect in assay [2] was -0.543%.

In assay [1], `O=C(O)CN1C(=O)c2cccc3cccc(c23)C1=O` [alrestatin] registered a mCherry of 115%. Besides, in assay [2], the percent effect is -5.48%.

In the case of `CO[C@@H]1[C@@H](O[C@@H]2O[C@H](C)[C@@H](O[C@H]3C[C@@](C)(O)[C@@H](OC(=O)CC(C)C)[C@H](C)O3)[C@H](N(C)C)[C@H]2O)[C@@H](CC=O)C[C@@H](C)[C@@H](O)/C=C/C=C/C[C@@H](C)OC(=O)C[C@H]1OC(C)=O` [Josacine], the mCherry in assay [1] turned out to be 102%. Besides, the percent effect in assay [2] was -2.44%.

In turn, `CCC(OC(N)=O)C1CCCCC1` (centres undefined) [procymate] returned a mCherry in assay [1] of 106%. Further, the percent effect in assay [2] is -2.6%.

As to `CC(=O)[C@@]1(O)CC[C@H]2[C@@H]3C=C(Cl)C4=CC(=O)CC[C@]4(C)[C@H]3CC[C@@]21C` [chlormadinone], in assay [1], the mCherry was 97.7%. Besides, the percent effect in assay [2] is -5.19%.

With `COCCCN1CCN(c2ccccc2OC)CC1` [dimetholizine], in assay [1], the mCherry amounted to 141%. The percent effect in assay [2] was found to be 0.553%.

Molecule `COC(=O)Nc1nc2cc(C(=O)c3ccccc3)ccc2[nH]1` [Mebendazol] had a mCherry in assay [1] of 98.9%. For the same molecule, the percent effect in assay [2] was -1.59%.

The values above are taken from the supplement of paper PMC8256030.
